Holding throughout (assay): two-hybrid; bait, prey and reporter vector pSH18-34 (lacZ) co-transformed into yeast strain EGY48; dropped onto X-gal medium, induction plate 30 °C for 22 h; blue precipitate (β-galactosidase) as read-out; at least six independent experiments
Assay [1] deals with NdhB (Sll0223) (Synechocystis sp. strain PCC 6803) (UniProt P72714).
Assay [2] addresses T1, NdhO (Ssl1690) (Synechocystis sp. strain PCC 6803) (UniProt P74771).
T1 sequence: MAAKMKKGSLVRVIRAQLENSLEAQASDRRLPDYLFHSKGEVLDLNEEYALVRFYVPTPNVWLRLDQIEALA

Chains of the proteins cited; added tags and fusions are not shown.
UniProt P72714: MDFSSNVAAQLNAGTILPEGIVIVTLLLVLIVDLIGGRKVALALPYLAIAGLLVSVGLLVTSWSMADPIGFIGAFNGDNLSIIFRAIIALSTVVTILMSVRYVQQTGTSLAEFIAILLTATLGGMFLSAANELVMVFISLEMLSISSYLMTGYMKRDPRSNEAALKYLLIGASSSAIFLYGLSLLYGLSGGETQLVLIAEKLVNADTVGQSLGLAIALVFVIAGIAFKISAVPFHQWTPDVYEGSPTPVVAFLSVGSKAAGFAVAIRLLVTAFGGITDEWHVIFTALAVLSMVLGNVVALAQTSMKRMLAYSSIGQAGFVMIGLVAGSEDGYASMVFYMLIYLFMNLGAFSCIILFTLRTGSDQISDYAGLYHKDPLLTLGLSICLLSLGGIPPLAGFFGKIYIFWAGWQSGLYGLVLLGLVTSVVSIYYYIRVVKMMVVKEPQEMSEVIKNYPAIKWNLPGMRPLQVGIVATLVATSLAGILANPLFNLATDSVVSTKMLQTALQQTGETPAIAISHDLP
UniProt P26522: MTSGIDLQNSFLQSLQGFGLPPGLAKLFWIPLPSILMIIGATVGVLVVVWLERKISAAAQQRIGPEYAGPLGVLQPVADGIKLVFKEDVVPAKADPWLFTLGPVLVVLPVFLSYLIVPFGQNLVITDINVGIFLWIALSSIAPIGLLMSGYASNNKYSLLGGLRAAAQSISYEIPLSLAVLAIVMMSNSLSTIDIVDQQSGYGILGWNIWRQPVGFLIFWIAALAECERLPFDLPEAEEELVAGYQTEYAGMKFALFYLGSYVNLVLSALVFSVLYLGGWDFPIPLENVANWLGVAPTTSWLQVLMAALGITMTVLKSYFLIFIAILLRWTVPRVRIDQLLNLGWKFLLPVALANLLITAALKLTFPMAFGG
UniProt P26525: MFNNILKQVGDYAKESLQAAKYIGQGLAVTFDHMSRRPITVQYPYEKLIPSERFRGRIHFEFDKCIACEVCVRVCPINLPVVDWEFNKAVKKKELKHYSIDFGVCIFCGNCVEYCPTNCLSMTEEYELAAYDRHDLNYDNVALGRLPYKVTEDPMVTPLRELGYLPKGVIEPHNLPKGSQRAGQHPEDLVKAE

Assay [3] concerns the target T2, NdhH (Slr0261) (Synechocystis sp. strain PCC 6803) (UniProt P27724).
T2 sequence: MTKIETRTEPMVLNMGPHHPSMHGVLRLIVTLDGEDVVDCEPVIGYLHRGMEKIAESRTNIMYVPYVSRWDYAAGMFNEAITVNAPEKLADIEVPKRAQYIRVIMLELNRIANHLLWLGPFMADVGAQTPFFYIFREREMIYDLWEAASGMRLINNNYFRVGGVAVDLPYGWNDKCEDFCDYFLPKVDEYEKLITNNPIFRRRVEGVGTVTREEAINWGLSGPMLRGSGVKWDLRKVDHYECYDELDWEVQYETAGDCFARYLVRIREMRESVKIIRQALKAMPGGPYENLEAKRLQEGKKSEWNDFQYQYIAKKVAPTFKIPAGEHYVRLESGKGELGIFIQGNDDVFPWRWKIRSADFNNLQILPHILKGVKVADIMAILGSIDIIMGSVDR

These are yes or no findings as the source states them, for the method shown. Some binding calls cover weakened binding; strength is not graded here.

Turning to “NdhA (Sll0519) (from UniProt P26522 1-372)”, the binding entry in assay [1] is recorded as “binds”.
Consider “NdhI (Sll0520) (from UniProt P26525 1-193)”, for which the binding result in assay [2] was “binds”.

B1: NdhK (Slr1280) (protein, UniProt P19050 1-248)
chain: MSPNPANPTDLERVATAKILNPASRSQVTQDLSENVILTTVDDLYNWAKLSSLWPLLYGTACCFIEFAALIGSRFDFDRFGLVPRSSPRQADLIITAGTITMKMAPALVRLYEEMPEPKYVIAMGACTITGGMFSSDSTTAVRGVDKLIPVDVYIPGCPPRPEAIFDAIIKLRKKVANESIQERAITQQTHRYYSTSHQMKVVAPILDGKYLQQGTRSAPPRELQEAMGMPVPPALTTSQQKEQLNRG
With B1, in assay [3], the binding result is given as “binds”.

For the origin of these results see article PMC4614683.
